{
  "source": "PubChem BioAssay AID1347076",
  "about": "(National Center for Advancing Translational Sciences (NCATS), 2019)",
  "note": "The whole screen tested about 400,000 compounds, of which about 13,000 (3.2%) were called active. Inconclusive means that the source gave no clear call. Such entries were picked first, then a sample of the others. The call rests on the fitted dose curve; in most records, active means well fitted cell-killing curve with a large enough effect; inconclusive means small, poorly fitted or top-dose-only effect, or effect the other way; inactive means flat fitted curve, though single readings scatter. Potencies of inconclusive entries are doubtful fits and often do not repeat. Potency means the concentration at half of the fitted maximal effect.",
  "data": [
    {"test": "qHTS assay for MDR1-selective chemotherapeutics: Primary screen using the drug-selected MDR subline cells KB-V1; further: nearly all actives have a fitted effect of over 60% in size", "conditions": "KB-V1 MDR cells viability, CellTiter-Glo, 72 h; series mostly up to 46.1 µM", "method_in_brief": "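qHTS viability screen in drug-selected KB-V1 MDR cells: 72 h compound treatment at 37 degrees C, ATP luminescence end point.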", "values": [
      {"smiles": "CC(C)(C)OC(=O)N1CCC[C@@H]1C(=O)N1CCC(C(=O)O)CC1", "Potency": "inconclusive: 29.1 µM [rising, partial curve, poor fit]"},
      {"smiles": "CCN1CCCC1CNC(=O)c1cc2c(-c3ccc(Cl)cc3)nn(C)c2s1", "note": "(stereo unspecified)", "Potency": "inconclusive: 13 µM [cytotoxic, single point]"},
      {"smiles": "CC(=O)NCCC(=O)N1CCCC(CNC(=O)c2ccc(-c3ccccc3)cc2)C1", "note": "(stereo unspecified)", "Potency": "inactive"},
      {"smiles": "COc1ccc(NC(=O)CC(C)C)c(OC)c1", "Potency": "inconclusive: 0.326 µM [rising, full curve, poor fit]"},
      {"smiles": "CCCCC(=O)Nc1cccc(NC(=O)c2ccccc2Br)c1", "Potency": "active: 5.17 µM"},
      {"smiles": "Cc1ccc(C)c(CN2CCC(CNC(=O)C(CC(C)C)N3Cc4ccccc4C3=O)CC2)c1", "note": "(stereo unspecified)", "Potency": "inactive"},
      {"smiles": "CCCCNC(=O)C[C@@H]1C[C@@]2(C(=O)OCC)CCC=C2N(CCC2=CCCCC2)C1=O", "Potency": "inactive"},
      {"smiles": "CC(C)(C)c1cc(NC(=O)CCSc2nnc3ccccn23)cc(C(C)(C)C)c1", "Potency": "active: 3.66 µM"},
      {"smiles": "CCc1cccc(C)c1NC(=O)C1CCN(S(=O)(=O)c2cc(Br)cc3c2N(C(C)=O)CC3)CC1", "Potency": "inconclusive: 18.4 µM [rising, partial curve, poor fit]"},
      {"smiles": "COC(=O)[C@@]12C[C@@H](CC(=O)NCc3cccc(C(F)(F)F)c3)C(=O)N(Cc3ccccc3)C1=CCC(C)(C)C2", "Potency": "inconclusive: 10.3 µM [cytotoxic, partial curve]"},
      {"smiles": "O=C(c1cccs1)N1CCCc2cc(NS(=O)(=O)c3ccc(Br)cc3)ccc21", "Potency": "inconclusive: 16.4 µM [cytotoxic, partial curve]"},
      {"smiles": "CN1CCN(C(=S)c2cn(Cc3ccccc3)c3ccccc23)CC1", "Potency": "inconclusive: 23.1 µM [cytotoxic, single point]"},
      {"smiles": "O=C(CN1c2cccc3cccc(c23)S1(=O)=O)Nc1cccc(S(=O)(=O)N2CCOCC2)c1", "Potency": "active: 18.4 µM"},
      {"smiles": "Brc1cccc(-c2nn(-c3ccccc3)c3c2cnc2cc4c(cc23)OCO4)c1", "Potency": "inactive"},
      {"smiles": "COc1ccc(C(=O)CNc2ccccc2CO)cc1", "Potency": "inactive"},
      {"smiles": "NC(CC(=O)O)c1ccc(F)cc1", "note": "(stereo unspecified)", "Potency": "inconclusive: 20.6 µM [rising, partial curve, poor fit]"},
      {"smiles": "Cc1ccc2nc(SCn3nnc4ccccc4c3=O)[nH]c2c1", "Potency": "active: 23.1 µM"},
      {"smiles": "Cc1ccsc1C(=O)OCC(=O)NC1CCCCC1", "Potency": "inactive"},
      {"smiles": "Cc1[nH]n(C(N)=S)c(=O)c1N=Nc1cccc([N+](=O)[O-])c1C", "Potency": "inconclusive: 29.1 µM [cytotoxic, single point]"},
      {"smiles": "Cc1ccccc1-n1c(SC2CCOC2=O)nnc1-c1ccncc1", "note": "(stereo unspecified)", "Potency": "inconclusive: 14.6 µM [rising, partial curve, poor fit]"},
      {"smiles": "CC(C)COC(=S)Nc1ccccc1", "Potency": "inactive"},
      {"smiles": "COc1cc(/C=C/C(=O)NC(=O)c2ccccc2O)ccc1O", "Potency": "inactive"},
      {"smiles": "FC(F)(F)c1ccncc1-c1nnnn1-c1ccc(Cl)cc1", "Potency": "inactive"},
      {"smiles": "COc1cccc(CNc2nc3cc(-c4ccc(OC)c(OC)c4)sc3c(=O)n2C)c1", "Potency": "inactive"},
      {"smiles": "CC(C)(C)OC(=O)[C@H](Cc1ccccc1)NC(=O)c1[nH]cnc1C(=O)Nc1ccc(Cl)cc1", "Potency": "inconclusive: 20.6 µM [cytotoxic, single point]"},
      {"smiles": "CCN(C(=O)Cn1c(=O)n(Cc2ccccc2)c(=O)c2ccccc21)c1cccc(C)c1", "Potency": "inconclusive: 20.6 µM [cytotoxic, single point]"},
      {"smiles": "COc1ccccc1CNC(=O)c1cc(-c2cc(F)ccc2OC)n[nH]1", "Potency": "inactive"},
      {"smiles": "CCNC(=S)NCC", "Potency": "inconclusive: 16.4 µM [rising, single point]"},
      {"smiles": "CC1(CCc2ccccc2)NC(=O)N(CC(=O)N2CC(=O)Nc3ccccc32)C1=O", "note": "(stereo unspecified)", "Potency": "inconclusive: 16.4 µM [rising, single point]"},
      {"smiles": "CS(=O)(=O)c1ccc2nc(NC(=O)CS(=O)(=O)Cc3ccccc3)sc2c1", "Potency": "inconclusive: 32.6 µM [rising, single point]"},
      {"smiles": "COc1ccc(-n2cc(CNCc3cccnc3)c(-c3cccc(F)c3)n2)cc1", "Potency": "inconclusive: 2.06 µM [cytotoxic, full curve]"},
      {"smiles": "COc1c(S(=O)(=O)N2CCN(c3ccc(F)cc3)CC2)ccc(Cl)c1Cl", "Potency": "inconclusive: 23.1 µM [cytotoxic, single point]"},
      {"smiles": "Cc1[nH]c2ccccc2c1C(=O)C(C)Sc1nnc(C2CC2)o1", "note": "(stereo unspecified)", "Potency": "active: 7.31 µM"},
      {"smiles": "C[C@H](CO)N1C[C@H](C)[C@H](CN(C)C(=O)c2ccc3ccn(C)c3c2)OCc2cnnn2CCCC1=O", "Potency": "inconclusive: 8.2 µM [rising, partial curve, poor fit]"},
      {"smiles": "CCOC(=O)C1=C(C)N=c2s/c(=C/c3ccco3)c(=O)n2C1c1cccc(OC)c1", "note": "(stereo unspecified)", "Potency": "inconclusive: 23.1 µM [cytotoxic, partial curve]"},
      {"smiles": "COc1cccc(CNC(=O)[C@@H]2CCCN2C(=O)[C@@H]2CCCN2C(=O)c2cccc3ccccc23)c1", "Potency": "inactive"},
      {"smiles": "CC1=NN(C(=O)COc2ccccc2C)C(O)(c2ccc(Cl)cc2)C1", "note": "(stereo unspecified)", "Potency": "active: 13 µM"},
      {"smiles": "N#Cc1c(SCC(=O)Nc2nncs2)sc2c(O)cc(=O)[nH]c12", "Potency": "inconclusive: 29.1 µM [rising, single point]"},
      {"smiles": "Cc1ccccc1-c1nc(-c2ccc(NC(=O)c3cccs3)cc2)no1", "Potency": "inconclusive: 29.1 µM [cytotoxic, single point]"},
      {"smiles": "COc1ccc(OCC(=O)Nc2cc(C)c(Cl)cc2OC)c([N+](=O)[O-])c1", "Potency": "inactive"},
      {"smiles": "c1csc(-c2nn3c(Cn4nnc5ccccc54)nnc3s2)c1", "Potency": "active: 14.6 µM"},
      {"smiles": "CCN(c1ccccc1)S(=O)(=O)c1ccc(OC)c(NC(=O)C2CC(=O)N(Cc3ccccc3)C2)c1", "note": "(stereo unspecified)", "Potency": "inactive"},
      {"smiles": "CCN(CC)S(=O)(=O)c1ccc(-c2nnc(SC)o2)cc1", "Potency": "active: 14.6 µM"},
      {"smiles": "Fc1ccc(-c2csc(N3CCC(c4ccccc4)C3)n2)cc1", "note": "(stereo unspecified)", "Potency": "inconclusive: 9.2 µM [cytotoxic, partial curve, poor fit]"},
      {"smiles": "COc1ccccc1C(=O)Nc1ccc(S(=O)(=O)N2CCC(C)CC2)cc1", "Potency": "inconclusive: 11.6 µM [cytotoxic, partial curve]"},
      {"smiles": "COc1ccc(NC(=O)CCCS(=O)(=O)c2nc(-c3ccccc3OC)cc(C(F)(F)F)n2)c(OC)c1", "Potency": "inconclusive: 14.6 µM [rising, partial curve, poor fit]"}
    ]}
  ]
}
